Data taken from patent US20140327158A1.
No constants are given. Whether binding was seen depends on the method and setting. Some entries that bind do so weakly or less than the wild type.

By UniProt entry, the sequences of proteins in these tests, tags left out. Residues count along the entry.
UniProt P05161, residues 2-156: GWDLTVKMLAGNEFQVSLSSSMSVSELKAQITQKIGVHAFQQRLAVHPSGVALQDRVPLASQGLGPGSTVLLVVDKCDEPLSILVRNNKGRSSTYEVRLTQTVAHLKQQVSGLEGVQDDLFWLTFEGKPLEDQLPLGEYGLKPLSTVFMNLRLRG

Biological target: T1, USP2 (UniProt O75604)
T1 sequence (looked up): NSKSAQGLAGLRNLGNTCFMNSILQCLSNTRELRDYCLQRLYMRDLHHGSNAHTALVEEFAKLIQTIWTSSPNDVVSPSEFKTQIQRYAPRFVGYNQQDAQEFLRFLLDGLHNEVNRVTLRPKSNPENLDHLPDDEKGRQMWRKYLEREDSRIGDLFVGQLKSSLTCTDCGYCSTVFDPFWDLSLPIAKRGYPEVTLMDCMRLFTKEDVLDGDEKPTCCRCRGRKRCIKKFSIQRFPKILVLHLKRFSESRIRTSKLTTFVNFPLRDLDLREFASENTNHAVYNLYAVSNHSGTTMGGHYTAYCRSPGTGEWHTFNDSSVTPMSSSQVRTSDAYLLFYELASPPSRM
Assay: activity probe labeling, gel shift

Substance: HA-Isg15Vs (from UniProt P05161 2-156)
- binding: binds
